# Data reported in EP1944294A1, “Gamma-polymorph of a substituted pyrazoline, its preparation and use as medicaments” (Laboratorios del Dr. Esteve S.A., priority 2007, dated 2008).
# For at least one compound, name, drawing or mass did not settle the structure.
# Experiments:
# [1] = Feeding study in dietary-induced obese rats: food intake and body weight; format: in vivo, female Wistar rats; conditions: first day, vs vehicle, Figure 2
# [2] = Effect of continued administration on body weight in rats; format: in vivo; conditions: Figure 1
structure (smiles),measurement,setting,value
"O=C(NN1CCCCC1)C1=NN(c2ccc(Cl)cc2Cl)[C@@H](c2ccc(Cl)cc2)C1 [Compound A, (R)-N-piperidinyl-5-(4-chlorophenyl)-1-(2,4-dichlorophenyl)-4,5-dihydro-1H-pyrazole-3-carboxamide]",palatable food intake,"[1]; 10 mg/kg po once daily, remained significantly lower on Days 2 to 7",significantly reduced
same,palatable food intake,"[1]; 30 mg/kg po once daily, remained significantly lower on Days 2 to 10 and Day 15",significantly reduced
same,effect on body weight,"[2]; 10 mg/kg i.p. once daily, days 8-21, rats, compared with racemate (Cpd. X)",stronger action than the racemate
same,recovery of weight,"[2]; escape treatment period after 10 mg/kg i.p. once daily, rats, compared with racemate",slower recovery of weight
